* marks the point of attachment. Cbz = O=C(OCc1ccccc1)*; Boc = CC(C)(C)OC(=O)*
Test: general procedure: solution-phase peptide synthesis; N-hydroxysuccinimide ester method; N,N'-dicyclohexylcarbodiimide with N-hydroxys
Details: coupling step

Row | Substance | step yield [%]
1 | Cbz-K(Boc)K(Boc)K(Boc)P-NH2 | 96
2 | Cbz-K(Boc)PVGK(Boc)K(Boc)K(Boc)K(Boc)P-NH2 | 90

— patent publication US4018753A (Shionogi & Co., Ltd., priority 1974, dated 1977)
